From the supplement of paper PMC12823440, “Inhibitors supercharge kinase turnover through native proteolytic circuits” (Nature, 2025)
Where a name gives a salt, the structure may show the parent alone. The list shows a part of the results. The calls rarely recur for the same compound in another form.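 Kinases, fused to nanoluciferase, were expressed in K562 cells; luminescence was measured every 4 h from 2 to 18 h as percent of control (DMSO = 100%, positive control = 0%). A time point is decreased if signal falls significantly (2 sigma). Hits were called by the authors by a rule that is not shown; the count of time points alone does not decide it.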

The chains behind the UniProt entries cited, without tags or fusion partners. Where a name states a change or a piece, a line headed by the entry shows the natural chain unless it says otherwise.
UniProt P50613: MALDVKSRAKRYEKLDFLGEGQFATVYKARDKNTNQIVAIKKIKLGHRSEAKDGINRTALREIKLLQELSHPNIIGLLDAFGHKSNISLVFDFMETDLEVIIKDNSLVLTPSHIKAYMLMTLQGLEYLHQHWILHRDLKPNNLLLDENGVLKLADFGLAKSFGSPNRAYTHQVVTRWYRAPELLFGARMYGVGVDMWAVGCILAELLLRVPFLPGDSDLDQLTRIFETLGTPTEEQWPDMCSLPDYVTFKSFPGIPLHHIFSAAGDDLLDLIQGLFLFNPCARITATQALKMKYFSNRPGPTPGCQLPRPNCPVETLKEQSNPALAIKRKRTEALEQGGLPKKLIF
UniProt P48729: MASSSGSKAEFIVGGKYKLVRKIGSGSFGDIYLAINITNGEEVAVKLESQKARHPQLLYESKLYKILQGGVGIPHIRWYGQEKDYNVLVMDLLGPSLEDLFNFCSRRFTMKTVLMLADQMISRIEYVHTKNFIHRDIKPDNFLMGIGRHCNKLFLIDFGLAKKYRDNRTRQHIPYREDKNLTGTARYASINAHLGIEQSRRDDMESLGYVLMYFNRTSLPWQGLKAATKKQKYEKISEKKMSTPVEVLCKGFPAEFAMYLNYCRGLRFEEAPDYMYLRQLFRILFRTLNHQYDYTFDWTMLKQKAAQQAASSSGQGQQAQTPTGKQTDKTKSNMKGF
UniProt P48730: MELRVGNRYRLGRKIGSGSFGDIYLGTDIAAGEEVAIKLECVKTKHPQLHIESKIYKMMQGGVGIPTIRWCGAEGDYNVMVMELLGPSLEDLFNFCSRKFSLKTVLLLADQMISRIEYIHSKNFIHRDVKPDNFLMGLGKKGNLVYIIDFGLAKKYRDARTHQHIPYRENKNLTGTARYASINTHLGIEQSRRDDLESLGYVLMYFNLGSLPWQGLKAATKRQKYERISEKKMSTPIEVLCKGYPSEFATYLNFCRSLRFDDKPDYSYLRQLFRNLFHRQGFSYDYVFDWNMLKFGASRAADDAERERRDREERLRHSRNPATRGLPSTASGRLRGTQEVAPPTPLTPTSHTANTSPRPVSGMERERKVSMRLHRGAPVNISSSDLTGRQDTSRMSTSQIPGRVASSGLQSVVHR
UniProt Q08345: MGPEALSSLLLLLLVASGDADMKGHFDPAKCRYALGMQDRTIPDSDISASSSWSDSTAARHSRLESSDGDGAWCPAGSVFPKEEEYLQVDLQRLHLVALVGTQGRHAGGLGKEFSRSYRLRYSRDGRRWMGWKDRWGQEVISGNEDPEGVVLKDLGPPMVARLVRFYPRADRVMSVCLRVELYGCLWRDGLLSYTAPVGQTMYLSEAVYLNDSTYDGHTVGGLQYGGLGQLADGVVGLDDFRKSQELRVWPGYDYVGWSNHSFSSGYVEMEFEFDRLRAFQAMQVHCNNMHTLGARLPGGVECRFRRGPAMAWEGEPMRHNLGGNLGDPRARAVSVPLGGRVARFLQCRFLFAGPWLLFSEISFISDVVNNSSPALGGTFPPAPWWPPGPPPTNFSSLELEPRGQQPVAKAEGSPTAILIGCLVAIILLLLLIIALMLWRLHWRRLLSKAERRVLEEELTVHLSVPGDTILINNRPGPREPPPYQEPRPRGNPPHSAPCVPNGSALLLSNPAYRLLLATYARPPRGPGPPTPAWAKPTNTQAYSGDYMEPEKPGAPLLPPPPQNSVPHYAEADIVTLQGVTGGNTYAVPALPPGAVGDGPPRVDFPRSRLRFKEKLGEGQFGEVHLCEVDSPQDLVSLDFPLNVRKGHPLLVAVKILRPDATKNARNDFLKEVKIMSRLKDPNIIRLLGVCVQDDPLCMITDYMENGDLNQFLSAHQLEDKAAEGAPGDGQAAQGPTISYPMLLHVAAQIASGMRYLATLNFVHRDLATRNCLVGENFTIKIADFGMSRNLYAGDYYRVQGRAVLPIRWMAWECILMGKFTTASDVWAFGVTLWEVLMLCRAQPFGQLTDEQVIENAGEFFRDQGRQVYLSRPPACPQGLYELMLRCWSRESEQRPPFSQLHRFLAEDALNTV
UniProt Q9Y463, whole entry, looked up: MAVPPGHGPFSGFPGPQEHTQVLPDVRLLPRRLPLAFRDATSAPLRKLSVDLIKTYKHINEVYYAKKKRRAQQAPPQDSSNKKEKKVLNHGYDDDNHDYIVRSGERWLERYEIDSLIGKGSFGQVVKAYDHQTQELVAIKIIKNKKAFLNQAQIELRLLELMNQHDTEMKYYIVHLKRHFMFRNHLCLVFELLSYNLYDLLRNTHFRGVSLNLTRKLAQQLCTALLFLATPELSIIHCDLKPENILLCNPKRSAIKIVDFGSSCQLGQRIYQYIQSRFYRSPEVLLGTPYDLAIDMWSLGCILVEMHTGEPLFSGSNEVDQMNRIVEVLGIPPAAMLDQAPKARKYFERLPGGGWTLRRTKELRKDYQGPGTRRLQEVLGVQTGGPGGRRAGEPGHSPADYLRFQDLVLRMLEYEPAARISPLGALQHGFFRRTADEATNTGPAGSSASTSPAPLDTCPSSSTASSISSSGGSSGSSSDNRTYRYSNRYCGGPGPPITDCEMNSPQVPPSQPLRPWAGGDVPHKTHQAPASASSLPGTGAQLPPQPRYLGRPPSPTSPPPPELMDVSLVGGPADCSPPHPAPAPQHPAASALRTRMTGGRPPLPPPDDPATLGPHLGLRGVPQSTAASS
UniProt P29317, whole entry: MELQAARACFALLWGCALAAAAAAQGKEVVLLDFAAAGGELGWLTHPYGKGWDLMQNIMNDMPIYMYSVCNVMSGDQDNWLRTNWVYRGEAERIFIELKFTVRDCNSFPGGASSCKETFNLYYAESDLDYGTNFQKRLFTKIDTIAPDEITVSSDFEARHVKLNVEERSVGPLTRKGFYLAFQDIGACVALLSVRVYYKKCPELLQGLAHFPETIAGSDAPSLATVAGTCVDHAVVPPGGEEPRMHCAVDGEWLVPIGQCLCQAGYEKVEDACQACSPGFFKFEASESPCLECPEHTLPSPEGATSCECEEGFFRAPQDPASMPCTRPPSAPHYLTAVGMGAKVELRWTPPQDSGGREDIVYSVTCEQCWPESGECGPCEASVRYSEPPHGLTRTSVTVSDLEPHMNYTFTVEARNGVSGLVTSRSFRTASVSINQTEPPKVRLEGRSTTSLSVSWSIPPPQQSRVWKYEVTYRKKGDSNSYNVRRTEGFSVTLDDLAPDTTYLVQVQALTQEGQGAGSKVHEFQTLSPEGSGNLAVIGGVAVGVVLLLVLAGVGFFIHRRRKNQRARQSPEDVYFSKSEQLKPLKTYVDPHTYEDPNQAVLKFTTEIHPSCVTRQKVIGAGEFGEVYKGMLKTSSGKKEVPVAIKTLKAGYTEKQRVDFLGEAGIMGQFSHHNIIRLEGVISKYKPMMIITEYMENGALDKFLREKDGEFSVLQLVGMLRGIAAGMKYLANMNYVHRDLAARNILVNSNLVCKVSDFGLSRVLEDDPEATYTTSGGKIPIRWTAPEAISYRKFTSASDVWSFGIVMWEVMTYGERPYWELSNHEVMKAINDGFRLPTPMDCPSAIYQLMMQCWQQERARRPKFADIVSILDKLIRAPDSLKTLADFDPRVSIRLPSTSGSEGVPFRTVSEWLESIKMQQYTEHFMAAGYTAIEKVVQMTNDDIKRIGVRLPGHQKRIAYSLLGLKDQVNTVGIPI
UniProt P21860, whole entry: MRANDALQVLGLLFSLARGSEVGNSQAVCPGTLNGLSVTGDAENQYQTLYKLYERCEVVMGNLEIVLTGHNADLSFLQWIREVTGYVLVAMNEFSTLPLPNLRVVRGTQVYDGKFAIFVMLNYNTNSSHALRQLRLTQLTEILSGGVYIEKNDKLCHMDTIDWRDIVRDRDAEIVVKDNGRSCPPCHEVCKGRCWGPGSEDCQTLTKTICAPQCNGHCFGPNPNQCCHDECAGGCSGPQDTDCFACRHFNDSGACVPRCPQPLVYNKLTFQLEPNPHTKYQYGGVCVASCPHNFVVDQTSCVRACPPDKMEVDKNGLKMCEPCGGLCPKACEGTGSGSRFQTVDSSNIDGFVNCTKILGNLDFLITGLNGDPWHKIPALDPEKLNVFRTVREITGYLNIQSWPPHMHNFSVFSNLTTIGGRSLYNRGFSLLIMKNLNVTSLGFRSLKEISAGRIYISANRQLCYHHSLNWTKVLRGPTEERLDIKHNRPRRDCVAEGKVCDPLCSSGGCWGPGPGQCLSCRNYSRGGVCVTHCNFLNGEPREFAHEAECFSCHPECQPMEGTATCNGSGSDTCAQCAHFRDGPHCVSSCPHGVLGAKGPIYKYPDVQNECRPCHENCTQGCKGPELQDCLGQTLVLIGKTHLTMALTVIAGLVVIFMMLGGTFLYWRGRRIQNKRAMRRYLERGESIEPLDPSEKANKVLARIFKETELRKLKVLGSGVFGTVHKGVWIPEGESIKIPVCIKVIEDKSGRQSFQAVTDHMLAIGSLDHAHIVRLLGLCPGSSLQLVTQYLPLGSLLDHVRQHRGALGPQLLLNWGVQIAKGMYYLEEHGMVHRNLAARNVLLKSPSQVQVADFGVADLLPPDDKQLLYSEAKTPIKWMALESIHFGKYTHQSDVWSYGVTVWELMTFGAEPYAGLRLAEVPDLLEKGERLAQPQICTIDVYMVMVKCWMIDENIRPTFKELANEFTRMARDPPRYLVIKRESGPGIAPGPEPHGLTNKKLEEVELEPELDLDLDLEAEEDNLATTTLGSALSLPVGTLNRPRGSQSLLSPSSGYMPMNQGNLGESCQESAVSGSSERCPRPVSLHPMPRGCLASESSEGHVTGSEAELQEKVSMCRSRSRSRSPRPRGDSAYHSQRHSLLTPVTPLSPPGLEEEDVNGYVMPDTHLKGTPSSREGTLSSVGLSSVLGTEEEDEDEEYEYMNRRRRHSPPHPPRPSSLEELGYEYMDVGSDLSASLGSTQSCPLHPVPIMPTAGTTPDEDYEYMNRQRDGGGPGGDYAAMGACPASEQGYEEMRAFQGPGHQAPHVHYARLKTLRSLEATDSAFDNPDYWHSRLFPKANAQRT
UniProt Q15303, whole entry R711C: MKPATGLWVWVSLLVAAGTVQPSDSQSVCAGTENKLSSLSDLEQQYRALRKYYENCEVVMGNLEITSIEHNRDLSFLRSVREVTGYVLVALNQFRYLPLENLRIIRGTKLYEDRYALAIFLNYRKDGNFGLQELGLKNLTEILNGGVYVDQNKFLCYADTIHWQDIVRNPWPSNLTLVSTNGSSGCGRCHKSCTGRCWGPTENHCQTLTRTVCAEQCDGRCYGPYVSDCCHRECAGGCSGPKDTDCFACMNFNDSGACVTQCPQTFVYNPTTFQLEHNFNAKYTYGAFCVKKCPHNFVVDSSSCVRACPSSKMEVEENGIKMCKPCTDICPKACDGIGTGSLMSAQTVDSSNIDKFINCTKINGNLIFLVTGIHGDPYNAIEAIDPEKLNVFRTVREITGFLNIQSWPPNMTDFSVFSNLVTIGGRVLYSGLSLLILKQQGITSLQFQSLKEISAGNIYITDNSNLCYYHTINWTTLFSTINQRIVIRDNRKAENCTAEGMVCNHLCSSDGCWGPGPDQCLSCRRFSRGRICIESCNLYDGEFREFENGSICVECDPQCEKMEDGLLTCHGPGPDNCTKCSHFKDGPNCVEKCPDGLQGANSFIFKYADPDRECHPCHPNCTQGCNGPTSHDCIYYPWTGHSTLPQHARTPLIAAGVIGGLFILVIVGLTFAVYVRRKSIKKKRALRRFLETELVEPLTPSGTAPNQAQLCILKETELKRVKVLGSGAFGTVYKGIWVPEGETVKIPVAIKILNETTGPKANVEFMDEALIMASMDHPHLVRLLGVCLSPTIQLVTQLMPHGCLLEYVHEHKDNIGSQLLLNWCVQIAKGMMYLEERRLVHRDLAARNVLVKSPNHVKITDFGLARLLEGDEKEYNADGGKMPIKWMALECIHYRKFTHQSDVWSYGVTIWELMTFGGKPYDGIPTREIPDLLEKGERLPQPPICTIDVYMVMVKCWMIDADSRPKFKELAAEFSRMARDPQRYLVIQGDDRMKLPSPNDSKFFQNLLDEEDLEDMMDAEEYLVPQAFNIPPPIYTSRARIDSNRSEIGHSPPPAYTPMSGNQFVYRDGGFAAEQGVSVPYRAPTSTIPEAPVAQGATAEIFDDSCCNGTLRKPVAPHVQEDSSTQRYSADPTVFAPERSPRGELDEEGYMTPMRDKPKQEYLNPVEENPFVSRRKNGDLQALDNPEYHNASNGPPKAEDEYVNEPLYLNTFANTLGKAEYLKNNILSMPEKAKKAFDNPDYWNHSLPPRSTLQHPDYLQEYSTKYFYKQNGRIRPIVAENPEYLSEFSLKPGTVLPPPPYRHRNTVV

Tests used:
Test in all cases: kinase-Nluc reporter destabilization hit call (1 = scored as downregulated) (binary); higher = compound decreases kinase abundance
Conditions in all cases: K562; 2-18 h
CDK7 = CDK7 (UniProt P50613)
CDK9 = CDK9 (UniProt P50750)
CHEK2 = CHEK2 (UniProt O96017)
CSF1R = CSF1R (UniProt P07333)
CSK = CSK (UniProt P41240)
CSNK1A1 = CSNK1A1 (UniProt P48729)
CSNK1D = CSNK1D (UniProt P48730)
DDR1 = DDR1 (UniProt Q08345)
DYRK1B = DYRK1B (UniProt Q9Y463)
DYRK2 = DYRK2 (UniProt Q92630)
EGFR = EGFR (UniProt P00533)
EGFR_G719S = EGFR_G719S (UniProt P00533)
EGFR_G719S_T790M = EGFR_G719S_T790M (UniProt P00533)
EGFR_L718V = EGFR_L718V (UniProt P00533)
EGFR_L858R = EGFR_L858R (UniProt P00533)
EGFR_L861Q = EGFR_L861Q (UniProt P00533)
EGFR_T790M = EGFR_T790M (UniProt P00533)
EPHA2 = EPHA2 (UniProt P29317)
ERBB3 = ERBB3 (UniProt P21860)
[1] = target: ERBB4_R711C (clone: ERBB4_mut) (UniProt Q15303)

Measured: kinase-Nluc reporter destabilization hit call

O=C(Nc1cccc(-c2nncn2C2CC2)c1)c1cc(-n2cnc(C3CC3)c2)ccn1 (10 µM)
inactive: CDK7 = 0 | CDK9 = 0 | CHEK2 = 0 | CSF1R 0 | CSK 0 | CSNK1A1 = 0 | CSNK1D 0 | DDR1 = 0 | DYRK1B 0 | DYRK2 = 0 | EGFR 0 | EGFR_G719S 0 | EGFR_G719S_T790M 0 | EGFR_L718V 0 | EGFR_L858R 0 | EGFR_L861Q 0 | EGFR_T790M 0 | EPHA2 = 0 | ERBB3 = 0 | [1] 0

NCCCCCCNS(=O)(=O)c1cccc2c(Cl)cccc12 [W-7 (hydrochloride)] (10 µM)
inactive: CDK7 = 0 | CDK9 = 0 | CHEK2 = 0 | CSF1R 0 | CSK 0 | CSNK1A1 = 0 | CSNK1D 0 | DDR1 = 0 | DYRK1B 0 | DYRK2 = 0 | EGFR 0 | EGFR_G719S 0 | EGFR_G719S_T790M 0 | EGFR_L718V 0 | EGFR_L858R 0 | EGFR_L861Q 0 | EGFR_T790M 0 | EPHA2 = 0 | ERBB3 = 0 | [1] 0

COc1cc(-c2cc(-c3cc(OC)c(OC)c(OC)c3)cc(C(F)P(=O)(OCOC(=O)C(C)(C)C)OCOC(=O)C(C)(C)C)c2)cc(OC)c1OC (stereo not given) [Stafia-1-dipivaloyloxymethyl ester] (2.5 µM)
inactive: CDK7 = 0 | CDK9 = 0 | CHEK2 = 0 | CSF1R 0 | CSK 0 | CSNK1A1 = 0 | CSNK1D 0 | DDR1 = 0 | DYRK1B 0 | DYRK2 = 0 | EGFR 0 | EGFR_G719S 0 | EGFR_G719S_T790M 0 | EGFR_L718V 0 | EGFR_L858R 0 | EGFR_L861Q 0 | EGFR_T790M 0 | EPHA2 = 0 | ERBB3 = 0 | [1] 0

COc1cnccc1Nc1nc(-c2nn(Cc3c(F)cc(OCCO)cc3F)c3ccccc23)ncc1OC (10 µM)
inactive: CDK7 = 0 | CDK9 = 0 | CHEK2 = 0 | CSF1R 0 | CSK 0 | CSNK1A1 = 0 | CSNK1D 0 | DDR1 = 0 | DYRK1B 0 | DYRK2 = 0 | EGFR 0 | EGFR_G719S 0 | EGFR_G719S_T790M 0 | EGFR_L718V 0 | EGFR_L858R 0 | EGFR_L861Q 0 | EGFR_T790M 0 | EPHA2 = 0 | ERBB3 = 0 | [1] 0

CC1=C(C(=O)Nc2ccc3[nH]ncc3c2)C(c2ccc(F)cc2)NC(=O)N1 (stereo not given) (10 µM)
inactive: CDK7 = 0 | CDK9 = 0 | CHEK2 = 0 | CSF1R 0 | CSK 0 | CSNK1A1 = 0 | CSNK1D 0 | DDR1 = 0 | DYRK1B 0 | DYRK2 = 0 | EGFR 0 | EGFR_G719S 0 | EGFR_G719S_T790M 0 | EGFR_L718V 0 | EGFR_L858R 0 | EGFR_L861Q 0 | EGFR_T790M 0 | EPHA2 = 0 | ERBB3 = 0 | [1] 0

O=C(O)c1cc(O)c2c(c1)[C@@H]([C@H]1c3cc(C(=O)O)cc(O)c3C(=O)c3c(O[C@@H]4O[C@H](CO)[C@@H](O)[C@H](O)[C@H]4O)cccc31)c1cccc(O[C@@H]3O[C@H](CO)[C@@H](O)[C@H](O)[C@H]3O)c1C2=O [Sennoside B] (2.5 µM)
inactive: CDK7 = 0 | CDK9 = 0 | CHEK2 = 0 | CSF1R 0 | CSK 0 | CSNK1A1 = 0 | CSNK1D 0 | DDR1 = 0 | DYRK1B 0 | DYRK2 = 0 | EGFR 0 | EGFR_G719S 0 | EGFR_G719S_T790M 0 | EGFR_L718V 0 | EGFR_L858R 0 | EGFR_L861Q 0 | EGFR_T790M 0 | EPHA2 = 0 | ERBB3 = 0 | [1] 0

C[C@@H]1O[C@@H](OC[C@H]2O[C@@H](Oc3cc(O)c4c(c3)O[C@H](c3ccc(O)cc3)CC4=O)[C@H](O)[C@@H](O)[C@@H]2O)[C@H](O)[C@H](O)[C@H]1O [Narirutin] (10 µM)
inactive: CDK7 = 0 | CDK9 = 0 | CHEK2 = 0 | CSF1R 0 | CSK 0 | CSNK1A1 = 0 | CSNK1D 0 | DDR1 = 0 | DYRK1B 0 | DYRK2 = 0 | EGFR 0 | EGFR_G719S 0 | EGFR_G719S_T790M 0 | EGFR_L718V 0 | EGFR_L858R 0 | EGFR_L861Q 0 | EGFR_T790M 0 | EPHA2 = 0 | ERBB3 = 0 | [1] 0

C[C@@H]1C[C@H]2O[C@@]3(O[C@@H]2C(C)(C)O)[C@H](O)[C@@]2(C)[C@@H]4CC[C@H]5C(C)(C)[C@@H](O[C@@H]6OC[C@H](O)[C@H](O)[C@H]6O)CC[C@@]56C[C@@]46CC[C@]2(C)[C@@H]13 [Cimiracemoside C] (10 µM)
inactive: CDK7 = 0 | CDK9 = 0 | CHEK2 = 0 | CSF1R 0 | CSK 0 | CSNK1A1 = 0 | CSNK1D 0 | DDR1 = 0 | DYRK1B 0 | DYRK2 = 0 | EGFR 0 | EGFR_G719S 0 | EGFR_G719S_T790M 0 | EGFR_L718V 0 | EGFR_L858R 0 | EGFR_L861Q 0 | EGFR_T790M 0 | EPHA2 = 0 | ERBB3 = 0 | [1] 0

O=c1[nH]ccc2cc(OC3CCNCC3)ccc12 (10 µM)
inactive: CDK7 = 0 | CDK9 = 0 | CHEK2 = 0 | CSF1R 0 | CSK 0 | CSNK1A1 = 0 | CSNK1D 0 | DDR1 = 0 | DYRK1B 0 | DYRK2 = 0 | EGFR 0 | EGFR_G719S 0 | EGFR_G719S_T790M 0 | EGFR_L718V 0 | EGFR_L858R 0 | EGFR_L861Q 0 | EGFR_T790M 0 | EPHA2 = 0 | ERBB3 = 0 | [1] 0

Nc1nc2cc(-c3ccc4ncc(C(=O)N5CCOCC5)n4c3)ccc2o1 [Serabelisib] (10 µM)
inactive: CDK7 = 0 | CDK9 = 0 | CHEK2 = 0 | CSF1R 0 | CSK 0 | CSNK1A1 = 0 | CSNK1D 0 | DDR1 = 0 | DYRK1B 0 | DYRK2 = 0 | EGFR 0 | EGFR_G719S 0 | EGFR_G719S_T790M 0 | EGFR_L718V 0 | EGFR_L858R 0 | EGFR_L861Q 0 | EGFR_T790M 0 | EPHA2 = 0 | ERBB3 = 0 | [1] 0

CN(C)c1nc2c(Br)c(Br)c(Br)c(Br)c2n1CC(=O)O (10 µM)
inactive: CDK7 = 0 | CDK9 = 0 | CHEK2 = 0 | CSF1R 0 | CSK 0 | CSNK1A1 = 0 | CSNK1D 0 | DDR1 = 0 | DYRK1B 0 | DYRK2 = 0 | EGFR 0 | EGFR_G719S 0 | EGFR_G719S_T790M 0 | EGFR_L718V 0 | EGFR_L858R 0 | EGFR_L861Q 0 | EGFR_T790M 0 | EPHA2 = 0 | ERBB3 = 0 | [1] 0

CCN(C)C(=O)c1ccc2c(C(=Nc3ccc(CN4CCCCC4)cc3)c3ccccc3)c(O)[nH]c2c1 (2.5 µM)
inactive: CDK7 = 0 | CDK9 = 0 | CHEK2 = 0 | CSF1R 0 | CSK 0 | CSNK1A1 = 0 | CSNK1D 0 | DDR1 = 0 | DYRK1B 0 | DYRK2 = 0 | EGFR 0 | EGFR_G719S 0 | EGFR_G719S_T790M 0 | EGFR_L718V 0 | EGFR_L858R 0 | EGFR_L861Q 0 | EGFR_T790M 0 | EPHA2 = 0 | ERBB3 = 0 | [1] 0

CC(C)C[C@H](NC(=O)[C@H](CCCCN)NC(=O)[C@H](CO)NC(=O)[C@@H](N)CC(C)C)C(N)=O [LSKL, Inhibitor of Thrombospondin (TSP-1) (TFA)] (10 µM)
inactive: CDK7 = 0 | CDK9 = 0 | CHEK2 = 0 | CSF1R 0 | CSK 0 | CSNK1A1 = 0 | CSNK1D 0 | DDR1 = 0 | DYRK1B 0 | DYRK2 = 0 | EGFR 0 | EGFR_G719S 0 | EGFR_G719S_T790M 0 | EGFR_L718V 0 | EGFR_L858R 0 | EGFR_L861Q 0 | EGFR_T790M 0 | EPHA2 = 0 | ERBB3 = 0 | [1] 0

CN1CC[C@H](c2c(O)cc(O)c3c(=O)cc(-c4ccc(C(F)(F)F)cc4Cl)oc23)[C@H]1CO [(2S,3R)-Voruciclib (hydrochloride)] (2.5 µM)
inactive: CDK7 = 0 | CDK9 = 0 | CHEK2 = 0 | CSF1R 0 | CSK 0 | CSNK1A1 = 0 | CSNK1D 0 | DDR1 = 0 | DYRK1B 0 | DYRK2 = 0 | EGFR 0 | EGFR_G719S 0 | EGFR_G719S_T790M 0 | EGFR_L718V 0 | EGFR_L858R 0 | EGFR_L861Q 0 | EGFR_T790M 0 | EPHA2 = 0 | ERBB3 = 0 | [1] 0

[O-][n+]1cccc(-c2nc3c(Cl)cccc3cc2[C@@H](Nc2ncnc3cccnc23)C(F)(F)F)c1 [Seletalisib] (10 µM)
inactive: CDK7 = 0 | CDK9 = 0 | CHEK2 = 0 | CSF1R 0 | CSK 0 | CSNK1A1 = 0 | CSNK1D 0 | DDR1 = 0 | DYRK1B 0 | DYRK2 = 0 | EGFR 0 | EGFR_G719S 0 | EGFR_G719S_T790M 0 | EGFR_L718V 0 | EGFR_L858R 0 | EGFR_L861Q 0 | EGFR_T790M 0 | EPHA2 = 0 | ERBB3 = 0 | [1] 0

CC(C)(C)Cn1c(N)nc2ccc(-c3[nH]c(C(C)(C)C)nc3-c3ccc(F)cc3)nc21 [Ralimetinib dimesylate] (2.5 µM)
inactive: CDK7 = 0 | CDK9 = 0 | CHEK2 = 0 | CSF1R 0 | CSK 0 | CSNK1A1 = 0 | CSNK1D 0 | DDR1 = 0 | DYRK1B 0 | DYRK2 = 0 | EGFR 0 | EGFR_G719S 0 | EGFR_G719S_T790M 0 | EGFR_L718V 0 | EGFR_L858R 0 | EGFR_L861Q 0 | EGFR_T790M 0 | EPHA2 = 0 | ERBB3 = 0 | [1] 0

Fetched by compound from above, 2 records:
CN1CC[C@H](c2c(O)cc(O)c3c(=O)cc(-c4ccc(C(F)(F)F)cc4Cl)oc23)[C@H]1CO [(2S,3R)-Voruciclib (hydrochloride)] (2.5 µM)
inactive: CDK7 = 0 | CDK9 = 0 | CHEK2 = 0 | CSF1R 0 | CSK 0 | CSNK1A1 = 0 | CSNK1D 0 | DDR1 = 0 | DYRK1B 0 | DYRK2 = 0 | EGFR 0 | EGFR_G719S 0 | EGFR_G719S_T790M 0 | EGFR_L718V 0 | EGFR_L858R 0 | EGFR_L861Q 0 | EGFR_T790M 0 | EPHA2 = 0 | ERBB3 = 0 | [1] 0

CCN(C)C(=O)c1ccc2c(C(=Nc3ccc(CN4CCCCC4)cc3)c3ccccc3)c(O)[nH]c2c1 (2.5 µM)
inactive: CDK7 = 0 | CDK9 = 0 | CHEK2 = 0 | CSF1R 0 | CSK 0 | CSNK1A1 = 0 | CSNK1D 0 | DDR1 = 0 | DYRK1B 0 | DYRK2 = 0 | EGFR 0 | EGFR_G719S 0 | EGFR_G719S_T790M 0 | EGFR_L718V 0 | EGFR_L858R 0 | EGFR_L861Q 0 | EGFR_T790M 0 | EPHA2 = 0 | ERBB3 = 0 | [1] 0

Next part:

NC(=O)c1ccc(-c2cnn3ccc(NCc4cccnc4)nc23)cc1 (2.5 µM)
inactive: CDK7 = 0 | CDK9 = 0 | CHEK2 = 0 | CSF1R 0 | CSK 0 | CSNK1A1 = 0 | CSNK1D 0 | DDR1 = 0 | DYRK1B 0 | DYRK2 = 0 | EGFR 0 | EGFR_G719S 0 | EGFR_G719S_T790M 0 | EGFR_L718V 0 | EGFR_L858R 0 | EGFR_L861Q 0 | EGFR_T790M 0 | EPHA2 = 0 | ERBB3 = 0 | [1] 0
